The values below come from paper PMC7862700.

Sequences of proteins named here, by UniProt entry; tags and fusion partners are left off. A change or cut given only in a name is not applied to a line headed by its entry.
UniProt Q00613: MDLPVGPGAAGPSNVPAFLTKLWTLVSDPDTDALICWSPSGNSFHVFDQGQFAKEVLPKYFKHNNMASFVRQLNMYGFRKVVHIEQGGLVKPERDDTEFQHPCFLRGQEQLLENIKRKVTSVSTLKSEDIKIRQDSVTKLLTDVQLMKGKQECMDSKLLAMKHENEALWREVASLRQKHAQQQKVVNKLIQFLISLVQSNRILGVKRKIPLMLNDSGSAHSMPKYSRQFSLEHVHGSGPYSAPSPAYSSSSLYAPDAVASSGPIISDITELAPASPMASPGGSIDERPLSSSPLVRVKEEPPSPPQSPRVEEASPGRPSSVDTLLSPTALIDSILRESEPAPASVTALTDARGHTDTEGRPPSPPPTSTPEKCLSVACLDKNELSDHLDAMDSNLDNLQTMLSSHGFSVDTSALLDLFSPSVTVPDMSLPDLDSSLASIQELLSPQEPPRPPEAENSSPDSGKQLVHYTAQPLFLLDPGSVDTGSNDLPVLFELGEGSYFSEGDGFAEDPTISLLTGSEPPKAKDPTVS

In experiment [1] the target is HSF1 (UniProt Q00613). Kind of experiment: DAPPL (digital affinity profiling via proximity ligation, sequencing). The following applies: 10 mM Tris-HCl pH 7.5, 50 mM NaCl, 1 mM DTT, 4% glycerol, room temperature, 30 min; GST-TFs on glutathione beads, 16-mer random dsDNA library, 0.1% …; high values mean tight binding; double strand, one strand shown; scale: fold enrichment (6-mer frequency, TF over GST control).

The target in experiment [2] is T1, ELF2 (UniProt Q15723).
T1 sequence: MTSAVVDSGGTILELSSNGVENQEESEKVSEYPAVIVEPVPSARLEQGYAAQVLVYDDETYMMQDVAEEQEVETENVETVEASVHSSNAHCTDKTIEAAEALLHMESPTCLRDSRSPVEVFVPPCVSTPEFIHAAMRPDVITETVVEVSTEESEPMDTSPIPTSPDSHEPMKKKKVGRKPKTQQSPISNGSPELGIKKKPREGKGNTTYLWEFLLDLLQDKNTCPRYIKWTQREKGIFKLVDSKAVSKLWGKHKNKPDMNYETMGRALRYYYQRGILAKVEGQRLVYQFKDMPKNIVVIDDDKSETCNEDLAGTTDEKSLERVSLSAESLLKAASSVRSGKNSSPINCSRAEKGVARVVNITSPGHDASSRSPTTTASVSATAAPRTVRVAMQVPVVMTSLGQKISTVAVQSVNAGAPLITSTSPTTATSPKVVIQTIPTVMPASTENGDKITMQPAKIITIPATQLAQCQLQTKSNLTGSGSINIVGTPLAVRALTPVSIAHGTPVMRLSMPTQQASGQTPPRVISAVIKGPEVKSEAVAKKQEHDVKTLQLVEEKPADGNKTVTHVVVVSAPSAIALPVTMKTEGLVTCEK
Described as above. As to conditions: 10 mM Tris-HCl pH 7.5, 50 mM NaCl, 1 mM DTT, 4% glycerol, room temperature, 30 min; GST-TFs on glutathione beads, 16-mer random dsDNA library, 0.1% …; high values mean tight binding; double strand, one strand shown; scale: fold enrichment (6-mer frequency, TF over GST control).

This is a selection; strong and weak results do not stand in their true shares. For part of these data: At the low end of the ranking, values are background and their order means little. The list shows a part of the results. For part of these data: The source does not settle which construct or isoform was used.

For the sequence GGCCAC, the binding signal in experiment [1] stood at 0.702; in experiment [2] it was 0.922.

With GGATTG, the binding signal amounted to 0.982 in experiment [1] and 0.801 in experiment [2].

Consider GGCATG, for which the binding signal in experiment [1] was determined as 0.692; in experiment [2], 0.77.

As for GTGTGA, the binding signal worked out at 0.451 in experiment [1] and 0.544 in experiment [2].

As for AGATTG, the binding signal in experiment [1] turned out to be 1.01; in experiment [2] it was 0.776.

In the case of AAGAGT, the values for the binding signal in experiment [1] and in experiment [2] were 0.901 and 0.871, respectively.

Take TGAGGT: the values for the binding signal in experiment [1] and in experiment [2] were 0.487 and 0.616, respectively.

Regarding ACGGGC, the results for the binding signal in experiment [1] and in experiment [2] were 0.721 and 0.799, respectively.

GGGCTG: the figures for the binding signal in experiment [1] and in experiment [2] were 0.703 and 0.868, respectively.

CAACGT: the binding signal in experiment [1] came to 0.735; in experiment [2] it was 0.841.

For AGGCAG, the binding signal in experiment [1] came to 0.465; in experiment [2], 0.539.

Regarding GCGAGT, the binding signal in experiment [1] came out at 0.523; in experiment [2] it was 0.533.

Turning to CGGCGA, the binding signal in experiment [1] amounted to 0.634; in experiment [2] it was 0.68.

CTGTCG: the binding signal in experiment [1] turned out to be 0.469; in experiment [2], 0.553.

Regarding GAGCCA, the binding signal stood at 0.513 in experiment [1] and 0.57 in experiment [2].

With GGAGCA, the binding signal amounted to 0.414 in experiment [1] and 0.443 in experiment [2].

Consider AGACCA, for which the binding signal in experiment [1] turned out to be 0.611; in experiment [2], 0.608.

For GTCGCT, the binding signal in experiment [1] was determined as 0.602; in experiment [2], 0.759.

AGTGAT: the binding signal in experiment [1] stood at 0.809; in experiment [2] it was 0.908.

Regarding GTCAGC, the binding signal in experiment [1] came out at 0.53; in experiment [2], 0.709.

Consider CCAGCC, for which the binding signal in experiment [1] worked out at 0.721; in experiment [2], 0.73.

With GTTCGG, the binding signal in experiment [1] came out at 0.678; in experiment [2], 0.614.

For GTGTGG, the binding signal was 0.513 in experiment [1] and 0.609 in experiment [2].

Take GCGCGA: the binding signal in experiment [1] stood at 0.804; in experiment [2], 0.696.

For GGAGTG, the values for the binding signal in experiment [1] and in experiment [2] were 0.319 and 0.388, respectively.

For AGACAC, the binding signal was 0.679 in experiment [1] and 0.761 in experiment [2].

In the case of AGGAGT, the binding signal amounted to 0.339 in experiment [1] and 0.377 in experiment [2].

Consider TACGTG, for which the binding signal in experiment [1] is 0.636; in experiment [2], 0.66.

Take AACAGT: the binding signal worked out at 0.624 in experiment [1] and 0.679 in experiment [2].

Turning to GACGTG, the binding signal in experiment [1] came to 0.293; in experiment [2], 0.322.

For the sequence CGGGTA, the binding signal in experiment [1] worked out at 0.677; in experiment [2], 0.891.

For the sequence GAGTAT, the binding signal in experiment [1] worked out at 0.669; in experiment [2] it was 0.587.

GTTGGA: the binding signal in experiment [1] is 0.493; in experiment [2], 0.479.

Take TCAGAA: the binding signal in experiment [1] came to 1.26; in experiment [2], 0.892.

As for CGAGTC, the values for the binding signal in experiment [1] and in experiment [2] were 0.481 and 0.497, respectively.

Turning to GTGGGT, the binding signal in experiment [1] stood at 0.37; in experiment [2] it was 0.453.

Take GAGATG: the figures for the binding signal in experiment [1] and in experiment [2] were 0.72 and 0.642, respectively.

CGGCCG: the figures for the binding signal in experiment [1] and in experiment [2] were 0.647 and 0.811, respectively.

For the sequence ACAGGG, the figures for the binding signal in experiment [1] and in experiment [2] were 0.634 and 0.75, respectively.

Take GCGTCG: the binding signal in experiment [1] stood at 0.648; in experiment [2], 0.753.

In the case of GCGGGA, the binding signal was found to be 0.389 in experiment [1] and 0.387 in experiment [2].

With CAGAGG, the binding signal in experiment [1] worked out at 0.594; in experiment [2], 0.599.

For CATAGG, the binding signal in experiment [1] came out at 0.667; in experiment [2], 0.748.

Regarding AGGCAA, the results for the binding signal in experiment [1] and in experiment [2] were 0.667 and 0.712, respectively.

Regarding GATAGA, the binding signal in experiment [1] is 0.953; in experiment [2], 0.752.

Turning to AGGCGA, the binding signal in experiment [1] is 0.515; in experiment [2], 0.498.

In the case of GCACGT, the binding signal in experiment [1] is 0.66; in experiment [2] it was 0.754.

Take AGCGCG: the results for the binding signal in experiment [1] and in experiment [2] were 0.747 and 0.799, respectively.

With ATGTGA, the binding signal in experiment [1] came out at 0.56; in experiment [2] it was 0.637.

Take GCGCTA: the binding signal in experiment [1] was determined as 0.922; in experiment [2], 0.909.

With TGGAGT, the binding signal in experiment [1] amounted to 0.488; in experiment [2], 0.506.

On to CGTGAC, for which the values for the binding signal in experiment [1] and in experiment [2] were 0.433 and 0.539, respectively.

For TGTGTG, the results for the binding signal in experiment [1] and in experiment [2] were 0.636 and 0.773, respectively.

For the sequence AAAGAG, the figures for the binding signal in experiment [1] and in experiment [2] were 0.955 and 0.867, respectively.

In the case of AAGTGA, the binding signal in experiment [1] came out at 0.542; in experiment [2] it was 0.715.

As for ACGGAG, the binding signal in experiment [1] amounted to 0.316; in experiment [2], 0.359.

For GGACAC, the binding signal stood at 0.535 in experiment [1] and 0.765 in experiment [2].

Turning to GCGTGT, the figures for the binding signal in experiment [1] and in experiment [2] were 0.482 and 0.542, respectively.

Take GTAGGT: the results for the binding signal in experiment [1] and in experiment [2] were 0.68 and 0.78, respectively.

In the case of TAAGTG, the binding signal in experiment [1] worked out at 0.932; in experiment [2], 0.766.
